# Experimental data: article PMC6445166, “Subnanomolar indazole-5-carboxamide inhibitors of monoamine oxidase B (MAO-B) continued: indications of iron binding, experimental evidence for optimised solubility and brain penetration” (Journal of Enzyme Inhibition and Medicinal Chemistry, 2017)
# Entries after “also recorded” stand apart in the source; their conditions may differ.
# How the values were obtained:
# [1] = Metal binding studies (UV-visible), Fe2+; assay type: physicochemical; settings: compound 50 μM in 50% DMSO, FeSO4 added
# [2] = Metal binding studies (UV-visible), Fe3+; assay type: physicochemical; settings: compound 50 μM in 50% DMSO, FeCl3 added
Structure (SMILES),ability to bind Fe^2+ (UV–visible absorbance change on FeSO4 addition) [1],ability to bind Fe^3+ (UV–visible absorbance change on FeCl3 addition) [2]
"Cc1c(O)c(=O)ccn1C [DFP, Deferiprone, reference compound]",significantly changed,higher chelating affinity
O=C(Nc1ccc(Cl)c(Cl)c1)c1ccc2[nH]ncc2c1 [NTZ-1006],slight increase of the maximum absorbance; also recorded: selectively bind Fe^2+ ions,not modified
O=C(Nc1ccc(F)c(Cl)c1)c1ccc2[nH]ncc2c1 [NTZ-1032],slight increase of the maximum absorbance; also recorded: selectively bind Fe^2+ ions,not modified
Cn1ncc2cc(C(=O)Nc3ccc(F)c(Cl)c3)ccc21 [NTZ-1441],did not have the ability to bind iron cations,did not have the ability to bind iron cations
